Results are given in words; binding and its absence hold for the method and conditions named. In cells and extracts the contact can be indirect. Some results given as binding are weak or reduced against the parent protein; the word gives no strength.
Biological target: T1, Jmjc domain of KDM5B (truncated mutant) (UniProt Q9UGL1)
T1 sequence: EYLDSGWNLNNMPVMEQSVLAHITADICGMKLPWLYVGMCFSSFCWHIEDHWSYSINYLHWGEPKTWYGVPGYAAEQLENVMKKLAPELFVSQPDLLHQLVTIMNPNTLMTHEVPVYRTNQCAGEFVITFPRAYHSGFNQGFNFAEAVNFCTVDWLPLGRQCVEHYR
Experiment: co-IP; 293T cells transfected with His-KDM5B and Flag-OTUD7A plasmids (whole and truncated mutants); no method of the co-IP is given

binding: binds
B1: OTU domain of OTUD7A (truncated mutant) (domain or fragment, UniProt Q8TE49 199-374)
chain: LLPLATTGDGNCLLHAASLGMWGFHDRDLVLRKALYTMMRTGAEREALKRRWRWQQTQQNKEEEWEREWTELLKLASSEPRTHFSKNGGTGGGVDNSEDPVYESLEEFHVFVLAHILRRPIVVVADTMLRDSGGEAFAPIPFGGIYLPLEVPPNRCHCSPLVLAYDQAHFSALVSM

From PMC12848020
